Assay results taken from PubChem BioAssay AID504327 (National Center for Advancing Translational Sciences (NCATS), 2011).
Screen size: about 390,000 compounds; about 820 (0.21%) were called active. Inconclusive means that the source gave no clear call. Such entries were picked first, then a sample of the others. Calls follow the shape of the dose curve; as a rule, active = well fitted inhibition curve with a large enough effect; inconclusive = small, poorly fitted or top-dose-only effect, or another doubt; inactive = no such curve, though single readings can be large or run the other way. Where the call is inconclusive, the potency comes from a doubtful curve fit.

The chains behind the UniProt entries cited, without tags or fusion partners.
UniProt Q92830, whole entry, looked up: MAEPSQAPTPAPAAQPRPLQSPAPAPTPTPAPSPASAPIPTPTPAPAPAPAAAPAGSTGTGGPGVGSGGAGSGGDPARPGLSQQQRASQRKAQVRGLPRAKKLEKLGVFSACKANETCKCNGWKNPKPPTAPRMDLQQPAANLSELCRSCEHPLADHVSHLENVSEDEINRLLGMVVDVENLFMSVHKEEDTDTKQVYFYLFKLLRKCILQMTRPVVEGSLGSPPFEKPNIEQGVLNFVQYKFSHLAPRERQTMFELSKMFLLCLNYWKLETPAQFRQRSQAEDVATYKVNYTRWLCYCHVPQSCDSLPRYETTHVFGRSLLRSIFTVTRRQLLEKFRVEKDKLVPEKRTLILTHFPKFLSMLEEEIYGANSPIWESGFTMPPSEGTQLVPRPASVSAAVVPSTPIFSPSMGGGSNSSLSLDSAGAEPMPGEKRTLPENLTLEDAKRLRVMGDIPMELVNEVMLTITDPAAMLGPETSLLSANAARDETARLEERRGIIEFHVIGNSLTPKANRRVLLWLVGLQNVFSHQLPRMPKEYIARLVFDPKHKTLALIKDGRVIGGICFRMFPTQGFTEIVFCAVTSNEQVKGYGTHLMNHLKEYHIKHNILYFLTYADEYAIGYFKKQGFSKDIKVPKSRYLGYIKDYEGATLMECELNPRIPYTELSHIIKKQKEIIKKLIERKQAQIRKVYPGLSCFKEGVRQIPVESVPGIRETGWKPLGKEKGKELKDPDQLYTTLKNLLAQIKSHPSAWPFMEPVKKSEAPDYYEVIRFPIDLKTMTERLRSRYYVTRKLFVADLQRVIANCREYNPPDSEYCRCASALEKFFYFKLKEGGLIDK

What follows are compounds tested against Histone acetyltransferase KAT2A (Homo sapiens) (UniProt Q92830) (assay: qHTS Assay for Inhibitors of GCN5L2). Details: GCN5L2 HAT assay, ThioGlo1 CoA-SH fluorescence; series mostly up to 58.9 µM.
In short: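 Free CoA generated was detected with ThioGlo1 (50uM) fluorescence at Ex340nm/Em540nm, read immediately and after 20 min at room temperature. Enzyme, 20 nM in HEPES pH 7.5 buffer, saw compounds 15 min before adding 75uM H3(1-25) peptide and 70uM acetyl-CoA.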
Potency is read from the fitted curve at half-maximal effect.

Row | SMILES | Potency
1 | O=C(Nc1cccc([N+](=O)[O-])c1)c1cccc(C(=O)Nc2cccc([N+](=O)[O-])c2)c1 | inconclusive: 17.8 µM [inhibitor, partial curve, poor fit]
2 | O=c1[nH]c(C2CCN(S(=O)(=O)c3ccccc3)CC2)nc2c1nnn2Cc1ccccc1 | inactive
3 | CN(C)/C=N/c1nc2nccc(-c3ccccc3)n2n1 | inconclusive: 28.2 µM [inhibitor, single point]
4 | COc1ccc(-n2c(=O)c3ccccc3n(CC(=O)NC3CCCC3)c2=O)c(OC)c1 | inconclusive: 0.501 µM [inhibitor, single point]
5 | c1ccc(Cc2noc(CN3CCCN(C4Cc5ccccc5C4)CC3)n2)cc1 | inconclusive: 8.91 µM [inhibitor, single point]
6 | Cc1ccc(S(=O)(=O)c2ncccc2N)cc1 | inactive
7 | Cc1cccc(C)c1-n1nnnc1C(C)(C)N1CCN(N=O)CC1 | inconclusive: 11.2 µM [inhibitor, partial curve, poor fit]
8 | CCOC(=O)C1CCN(S(=O)(=O)c2ccc(NC(=O)OC)cc2)CC1 | inconclusive: 7.08 µM [inhibitor, single point]
9 | CCCCNc1nc(Oc2ccc(=O)n(-c3ccccc3)n2)nc(N(CC)CC)n1 | inactive
10 | Cc1ccc(C(=O)N2CCN(S(=O)(=O)c3ccc(Br)cc3)CC2)o1 | inactive
11 | CCOc1ccc(NC(=O)CSc2nnc(C)n2CC)cc1 | inconclusive: 39.8 µM [inhibitor, single point]
12 | CC(C)(CC(=O)OCC(=O)Nc1ccccc1F)CC1=NS(=O)(=O)c2ccccc2N1 | inactive
13 | CN(C)c1ccc(N/C=C/C(=O)c2ccc(F)cc2)cc1 | inactive
14 | COc1ccc(N=Cc2c(O)cc(C)oc2=O)cc1 | inconclusive: 44.7 µM [inhibitor, partial curve, poor fit]
15 | CCCCN1c2ccccc2N(CCCO)c2cc(C)nnc21 | inconclusive: 25.1 µM [inhibitor, single point]
16 | CCOC(=O)/C=C1\NC(C)(C)Cc2cc(OC)c(O)cc21 | inconclusive: 0.224 µM [inhibitor, full curve, poor fit]
17 | C/C(=N\NC(=O)c1cc(-c2cccc([N+](=O)[O-])c2)n[nH]1)c1ccccc1O | inconclusive: 14.1 µM [inhibitor, partial curve]
18 | CCc1cccc(C)c1NC(=O)CCOc1ccccc1 | inactive
19 | O=C(c1cccc(F)c1)N1CCC[C@@]2(CCN(c3ccccc3)C2)C1 | inactive
20 | Cc1ccc(-c2nn(-c3ccccc3)cc2/C=C2\SC(=S)N(CCCCCC(=O)O)C2=O)o1 | active: 25.1 µM
21 | CCOC(=O)c1c(N)c2cc([N+](=O)[O-])ccc2n1C | inconclusive: 0.282 µM [inhibitor, full curve, poor fit]
22 | Cc1ccsc1/C=C1\SC(N2CCOCC2)=NC1=O | inconclusive: 39.8 µM [inhibitor, single point]
23 | O=C(NNC(=S)NC(=O)c1ccccc1Cl)c1cccc([N+](=O)[O-])c1 | inactive
24 | CCn1c(-c2cc(-c3ccccc3)sc2N)n[nH]c1=S | inactive

Row | SMILES | Potency
25 | CC(=O)c1cnc(Nc2nc(C)c3ccc(C)cc3n2)nc1C | inconclusive: 0.447 µM [inhibitor, full curve, poor fit]
26 | COC(=O)c1[nH]c2ccccc2c1NC(=O)C(C)N1CCOCC1 (configuration not stated) | inconclusive: 1 µM [inhibitor, full curve, poor fit]
27 | Cc1ccc(-n2ncc3c(=O)n(CC(N)=O)cnc32)cc1C | active: 3.98 µM
28 | Cc1cc(=O)n2[nH]c(SCc3ccccc3)nc2n1 | inconclusive: 39.8 µM [inhibitor, single point]
29 | CCOC(=O)N1CCN(C(=O)/C=C/c2ccc(C(C)(C)C)cc2)CC1 | inconclusive: 3.98 µM [inhibitor, single point]
30 | C=CCOc1ccc(/C=C2\SC(=S)N(NS(=O)(=O)c3ccccc3)C2=O)cc1 | inactive
31 | Cc1cccc(C(=O)Nc2nnc(C3=COCCO3)o2)c1 | inactive
32 | O=C(CSc1nnc(-c2ccc(S(=O)(=O)N3CCCC3)cc2)n1CC1CCCO1)NC1CC1 (configuration not stated) | inconclusive: 44.7 µM [inhibitor, partial curve, poor fit]
33 | C=CCn1c(COc2ccccc2)nnc1SCC(=O)N/N=C/c1ccc(C)cc1 | inconclusive: 39.8 µM [inhibitor, single point]
34 | Cc1ccccc1Nc1c(-c2ccc(N3CCOCC3)cc2)nc2ccccn12 | inconclusive: 17.8 µM [inhibitor, partial curve]
35 | Cc1ccc(F)c(NC(=O)/C(C#N)=C(\O)c2ccc(C(C)(C)C)cc2)c1 | inconclusive: 31.6 µM [inhibitor, single point]
36 | O=C1N=C2SCCN2/C1=C\c1ccccc1Cl | inconclusive: 39.8 µM [inhibitor, single point]
37 | CCCCn1c(SCC(=O)Nc2cc(NC(=O)c3ccco3)ccc2C)nc2ccccc2c1=O | inactive
38 | CCC(Cc1c(I)cc(I)c(O)c1I)C(=O)O (configuration not stated) | active: 22.4 µM
39 | N#Cc1c(Cl)nsc1NC(=O)c1ccccc1 | inactive
40 | CCn1c(-c2ccccc2)c[nH]c1=S | inconclusive: 0.794 µM [inhibitor, single point]
41 | CCc1ccc2c(CN(C)Cc3ccccc3OC)cc(=O)oc2c1 | inactive
42 | CN(C)C(CNC(=O)c1cc2ccccc2o1)c1ccco1 (configuration not stated) | inactive
43 | Cc1ccc(-n2c(C)nc3c(cnn3-c3ccc(F)cc3)c2=O)cc1C | inconclusive: 0.631 µM [inhibitor, single point]
44 | Cc1ccccc1Nc1nn2c(=O)c3ccccc3nc2s1 | inconclusive: 31.6 µM [inhibitor, single point]
45 | O=C(Nc1ccc(O)c(-c2nc3ccccc3o2)c1)c1sc2ccccc2c1Cl | inconclusive: 28.2 µM [inhibitor, single point]
46 | CCCC(=O)NNC(=O)CCC(=O)NCc1ccccc1 | inconclusive: 0.126 µM [inhibitor, full curve, poor fit]
47 | CCOC(=O)c1c(-c2ccc(C)o2)csc1NC(=O)CSc1nncs1 | inconclusive: 22.4 µM [inhibitor, single point]

Exported as a markdown table: 3 of the compounds above

| Row | SMILES | Potency |
| --- | --- | --- |
| 18 | CCc1cccc(C)c1NC(=O)CCOc1ccccc1 | inactive |
| 19 | O=C(c1cccc(F)c1)N1CCC[C@@]2(CCN(c3ccccc3)C2)C1 | inactive |
| 20 | Cc1ccc(-c2nn(-c3ccccc3)cc2/C=C2\SC(=S)N(CCCCCC(=O)O)C2=O)o1 | active: 25.1 µM |

Single entries from the results shown:
CCOC(=O)/C=C1\NC(C)(C)Cc2cc(OC)c(O)cc21 | Potency: inconclusive: 0.224 µM [inhibitor, full curve, poor fit]
CCc1cccc(C)c1NC(=O)CCOc1ccccc1 | Potency: inactive
